Screening data

Data taken from PubChem BioAssay AID504749, deposited by NCATS (2011).

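Malaria parasite (P. falciparum) lines kept in red blood cells; parasite DNA is measured by SYBR Green fluorescence after lysis, 72 h after compound addition.
Each compound was titrated across a series from about 0.000037 to 29 µM.
The number is the fitted AC50, the concentration giving a half-maximal change in signal; a lower value means higher potency, whether the curve shows a decrease or an increase.
Calls follow the curve class and fit quality: every row here is inconclusive, covering signal-raising curves and weak, poorly fitted, partial or highest-dose-only inhibition curves.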

Values are in nM.
Every entry below has the call inconclusive.
Only part of the assay is shown, chiefly results filed as inconclusive.
Potencies fitted to partial, single-point or poorly fitting curves are rough.

compound | setting | Potency (nM) | curve as filed
CCCCCN=C(N)N/N=C/c1c[nH]c2ccc(OC)cc12 | CP185 | 10000 | inhibitor, single point
CCCCCN=C(N)N/N=C/c1c[nH]c2ccc(OC)cc12 | PC49 | 17782 | inhibitor, single point
CCCCCN=C(N)N/N=C/c1c[nH]c2ccc(OC)cc12 | CP329 | 19011 | inhibitor, single point
CCCCCN=C(N)N/N=C/c1c[nH]c2ccc(OC)cc12 | CP256 | 17782 | inhibitor, single point
CCCCCN=C(N)N/N=C/c1c[nH]c2ccc(OC)cc12 | C2A | 15848 | inhibitor, single point
CCCCCN=C(N)N/N=C/c1c[nH]c2ccc(OC)cc12 | ATS95 | 17782 | inhibitor, single point
CCCCCN=C(N)N/N=C/c1c[nH]c2ccc(OC)cc12 | CP297 | 13459 | inhibitor, single point
CCCCCN=C(N)N/N=C/c1c[nH]c2ccc(OC)cc12 | CP252 | 17782 | inhibitor, single point
CCCCCN=C(N)N/N=C/c1c[nH]c2ccc(OC)cc12 | AA1029 | 17782 | inhibitor, single point
CCCCCN=C(N)N/N=C/c1c[nH]c2ccc(OC)cc12 | CP203 | 13459 | inhibitor, single point
CCCCCN=C(N)N/N=C/c1c[nH]c2ccc(OC)cc12 | FAB9 | 17782 | inhibitor, single point
CCCCCN=C(N)N/N=C/c1c[nH]c2ccc(OC)cc12 | CP266 | 16944 | inhibitor, single point
CCCCCN=C(N)N/N=C/c1c[nH]c2ccc(OC)cc12 | CP286 | 11220 | inhibitor, single point
CCCCCN=C(N)N/N=C/c1c[nH]c2ccc(OC)cc12 | JCK | 17782 | inhibitor, single point
CCCCCN=C(N)N/N=C/c1c[nH]c2ccc(OC)cc12 | CP217 | 14125 | inhibitor, single point
CCCCCN=C(N)N/N=C/c1c[nH]c2ccc(OC)cc12 | CP201 | 19011 | inhibitor, single point
CCCCCN=C(N)N/N=C/c1c[nH]c2ccc(OC)cc12 | CP325 | 13459 | inhibitor, single point
CCCCCN=C(N)N/N=C/c1c[nH]c2ccc(OC)cc12 | CP238 | 11220 | inhibitor, single point
CCCCCN=C(N)N/N=C/c1c[nH]c2ccc(OC)cc12 | CP268 | 16944 | inhibitor, single point
CCCCCN=C(N)N/N=C/c1c[nH]c2ccc(OC)cc12 | CP194 | 16944 | inhibitor, single point
CCCCCN=C(N)N/N=C/c1c[nH]c2ccc(OC)cc12 | CP247 | 11220 | inhibitor, single point
CCCCCN=C(N)N/N=C/c1c[nH]c2ccc(OC)cc12 | CP250 | 11220 | inhibitor, single point
CCCCCN=C(N)N/N=C/c1c[nH]c2ccc(OC)cc12 | CP215 | 19011 | inhibitor, single point
CCCCCN=C(N)N/N=C/c1c[nH]c2ccc(OC)cc12 | CP211 | 13459 | inhibitor, single point
CCCCCN=C(N)N/N=C/c1c[nH]c2ccc(OC)cc12 | CP305 | 16944 | inhibitor, single point
Clc1ccc(C(c2ccc(Cl)cc2)C(Cl)(Cl)Cl)cc1 | P94_40 | 12589 | inhibitor, single point
Clc1ccc(C(c2ccc(Cl)cc2)C(Cl)(Cl)Cl)cc1 | CP203 | 13459 | inhibitor, single point
Clc1ccc(C(c2ccc(Cl)cc2)C(Cl)(Cl)Cl)cc1 | PAD | 17782 | inhibitor, single point
Clc1ccc(C(c2ccc(Cl)cc2)C(Cl)(Cl)Cl)cc1 | ATS189 | 10000 | inhibitor, single point
Clc1ccc(C(c2ccc(Cl)cc2)C(Cl)(Cl)Cl)cc1 | PC26 | 11995 | inhibitor, single point
Clc1ccc(C(c2ccc(Cl)cc2)C(Cl)(Cl)Cl)cc1 | N140 | 10000 | inhibitor, single point
Clc1ccc(C(c2ccc(Cl)cc2)C(Cl)(Cl)Cl)cc1 | DIV17 | 16944 | inhibitor, partial curve
Clc1ccc(C(c2ccc(Cl)cc2)C(Cl)(Cl)Cl)cc1 | CP191 | 14125 | inhibitor, single point
Clc1ccc(C(c2ccc(Cl)cc2)C(Cl)(Cl)Cl)cc1 | DIV14 | 19011 | inhibitor, single point
Clc1ccc(C(c2ccc(Cl)cc2)C(Cl)(Cl)Cl)cc1 | CP237 | 17782 | inhibitor, single point
Clc1ccc(C(c2ccc(Cl)cc2)C(Cl)(Cl)Cl)cc1 | GB4 | 15101 | inhibitor, single point
Clc1ccc(C(c2ccc(Cl)cc2)C(Cl)(Cl)Cl)cc1 | CP194 | 15101 | inhibitor, partial curve, poor fit
Clc1ccc(C(c2ccc(Cl)cc2)C(Cl)(Cl)Cl)cc1 | ICS | 11220 | inhibitor, single point
Clc1ccc(C(c2ccc(Cl)cc2)C(Cl)(Cl)Cl)cc1 | DIV30 | 9528 | inhibitor, single point
Clc1ccc(C(c2ccc(Cl)cc2)C(Cl)(Cl)Cl)cc1 | CP297 | 9528 | inhibitor, partial curve, poor fit
Clc1ccc(C(c2ccc(Cl)cc2)C(Cl)(Cl)Cl)cc1 | CP215 | 19011 | inhibitor, single point
c1ccc(C2CN3CCSC3=N2)cc1 (stereo not shown) | CP252 | 12589 | inhibitor, single point
c1ccc(C2CN3CCSC3=N2)cc1 (stereo not shown) | CP211 | 16944 | inhibitor, single point
c1ccc(C2CN3CCSC3=N2)cc1 (stereo not shown) | ATS95 | 17782 | inhibitor, single point
c1ccc(C2CN3CCSC3=N2)cc1 (stereo not shown) | CP291 | 15101 | inhibitor, single point

Some entries from above, unchanged:

| compound | setting | Potency (nM) | curve as filed |
|---|---|---|---|
| `CCCCCN=C(N)N/N=C/c1c[nH]c2ccc(OC)cc12` | ATS95 | 17782 | inhibitor, single point |
| `Clc1ccc(C(c2ccc(Cl)cc2)C(Cl)(Cl)Cl)cc1` | CP203 | 13459 | inhibitor, single point |
| `Clc1ccc(C(c2ccc(Cl)cc2)C(Cl)(Cl)Cl)cc1` | CP215 | 19011 | inhibitor, single point |
| `CCCCCN=C(N)N/N=C/c1c[nH]c2ccc(OC)cc12` | CP238 | 11220 | inhibitor, single point |